Data taken from publication PMC7504531.
Results are given in words; binding and its absence hold for the method and conditions named. Binding seen in cells or lysates may run through a third protein. Binding calls can cover weak binding; strength is not graded here. Where a sequence is shown, tags or fusion partners need not be part of it.

Amino acid sequences for entries named in this document (tags omitted). A change or cut given only in a name is not applied to a line headed by its entry.
UniProt Q9M0L8: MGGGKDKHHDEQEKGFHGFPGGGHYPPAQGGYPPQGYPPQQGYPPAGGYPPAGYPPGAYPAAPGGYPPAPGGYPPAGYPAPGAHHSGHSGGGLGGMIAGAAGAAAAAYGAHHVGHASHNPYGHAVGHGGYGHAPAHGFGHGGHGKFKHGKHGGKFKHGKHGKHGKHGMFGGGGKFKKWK

Target: AtGPRP3 fused to cCFP for BiFC (Arabidopsis thaliana) (UniProt Q9M0L8)
Assay: split reporter; BiFC in Arabidopsis protoplasts; AtGPRP3-cCFP cotransformed with CAT1, CAT2 or CAT3 fused to nVenus; confocal microscopy

| Binder | binding |
| --- | --- |
| CAT2 fused to nVenus for BiFC (enzyme, UniProt P25819 1-492) MDPYKYRPASSYNSPFFTTNSGAPVWNNNSSMTVGPRGPILLEDYHLVEKLANFDRERIPERVVHARGASAKGFFEVTHDISNLTCADFLRAPGVQTPVIVRFSTVIHERGSPETLRDPRGFAVKFYTREGNFDLVGNNFPVFFIRDGMKFPDMVHALKPNPKSHIQENWRILDFFSHHPESLNMFTFLFDDIGIPQDYRHMDGSGVNTYMLINKAGKAHYVKFHWKPTCGVKSLLEEDAIRVGGTNHSHATQDLYDSIAAGNYPEWKLFIQIIDPADEDKFDFDPLDVTKTWPEDILPLQPVGRMVLNKNIDNFFAENEQLAFCPAIIVPGIHYSDDKLLQTRVFSYADTQRHRLGPNYLQLPVNAPKCAHHNNHHEGFMNFMHRDEEVNYFPSRYDQVRHAEKYPTPPAVCSGKRERCIIEKENNFKEPGERYRTFTPERQERFIQRWIDALSDPRITHEIRSIWISYWSQADKSLGQKLASRLNVRPSI | binds |
| CAT3 fused to nVenus for BiFC (enzyme, UniProt Q42547 1-492) MDPYKYRPSSAYNAPFYTTNGGAPVSNNISSLTIGERGPVLLEDYHLIEKVANFTRERIPERVVHARGISAKGFFEVTHDISNLTCADFLRAPGVQTPVIVRFSTVVHERASPETMRDIRGFAVKFYTREGNFDLVGNNTPVFFIRDGIQFPDVVHALKPNPKTNIQEYWRILDYMSHLPESLLTWCWMFDDVGIPQDYRHMEGFGVHTYTLIAKSGKVLFVKFHWKPTCGIKNLTDEEAKVVGGANHSHATKDLHDAIASGNYPEWKLFIQTMDPADEDKFDFDPLDVTKIWPEDILPLQPVGRLVLNRTIDNFFNETEQLAFNPGLVVPGIYYSDDKLLQCRIFAYGDTQRHRLGPNYLQLPVNAPKCAHHNNHHEGFMNFMHRDEEINYYPSKFDPVRCAEKVPTPTNSYTGIRTKCVIKKENNFKQAGDRYRSWAPDRQDRFVKRWVEILSEPRLTHEIRGIWISYWSQADRSLGQKLASRLNVRPSI | binds |
